# Literature values as cited in patent US6630169B1, “Particulate delivery systems and methods of use” (priority 2000, dated 2003).
# At least one compound was matched to its structure with a doubt left.
# Conditions: cited from earlier work
row,Structure (SMILES),Refractive Index
1,FC(F)(Cl)Cl [CFC-12],1.287
2,CCCCCCCCCCCCCC(=O)OC[C@H](COP(=O)([O-])OCC[N+](C)(C)C)OC(=O)CCCCCCCCCCCCC [DMPC],1.43
